Results as given in PubChem BioAssay AID1347076 (National Center for Advancing Translational Sciences (NCATS), 2019).
Out of some 400,000 compounds screened, about 13,000 (3.2%) were called active. This list was built around the results that the source calls inconclusive (neither active nor inactive); the mix of calls is not that of the screen. Calls come from the whole dose curve; as a rule, active = well fitted cell-killing curve with a large enough effect; inconclusive = small, poorly fitted or top-dose-only effect, or effect the other way; inactive = flat fitted curve, though single readings scatter. Potencies of inconclusive entries are doubtful fits and often do not repeat.

Experiment: qHTS assay for MDR1-selective chemotherapeutics: Primary screen using the drug-selected MDR subline cells KB-V1; note: nearly all actives have a fitted effect of over 60% in size
Details: KB-V1 MDR cells viability, CellTiter-Glo, 72 h; activity change, negative = cytotoxicity: at 46.1 µM (top of the series)
Procedure, shortened: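 Drug-selected KB-V1 cells, grown in DMEM lacking phenol red with 10% FBS, receive compound titrations; after three days at 37 degrees C, surviving cell ATP is quantified by CellTiter-Glo luminescence and responses normalized and curve-fitted.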
% is set by controls: 0 for no effect and ±100 for the full control effect; potency is the fitted concentration of half-maximal effect.

Row | SMILES | Potency | activity change, negative = cytotoxicity
1 | COc1ccc(-c2nnc3ccc(SC)nn23)cc1 | active: 14.6 µM | –
2 | COc1ccc(CC(=O)N2CCCc3ccccc32)cc1OC | – | inactive: 0%
3 | COC(=O)C1=C(C)N(Cc2ccccc2)C(=S)N[C@H]1c1ccc(Br)cc1 | – | inactive: -29.5%
4 | COc1ccc(NC(=O)CN(c2ccc([N+](=O)[O-])cc2)S(=O)(=O)c2ccccc2)cc1 | active: 16.4 µM | –
5 | COc1cc(CNC(=O)c2cc(-c3cc(Cl)ccc3OC)n[nH]2)cc(OC)c1 | inconclusive: 20.6 µM [cytotoxic, partial curve] | –
6 | CCc1cccc(OCC(=O)Nc2c[nH]c(=O)[nH]c2=O)c1 | inconclusive: 4.11 µM [cytotoxic, full curve] | –
7 | Cc1c(CCOC(=O)CC23CC4CC(CC(C)(C4)C2)C3)sc[n+]1Cc1ccc([N+](=O)[O-])cc1 | inconclusive: 29.1 µM [rising, single point] | –
8 | O=C(Cc1ccccc1)N(c1ccc(F)cc1)C1C=CS(=O)(=O)C1 (stereo not drawn) | inconclusive: 29.1 µM [cytotoxic, single point] | –
9 | Cc1onc(-c2ccccc2Cl)c1C(=O)N1CCN(c2ncccn2)CC1 | inconclusive: 8.2 µM [cytotoxic, partial curve, poor fit] | –
10 | O=C(c1ccccc1F)N1CCCC(c2ccccc2)C1 (stereo not drawn) | active: 23.1 µM | –
11 | Cc1[nH][nH]c(=O)c1C(c1cc(Br)ccc1O)c1c(C)[nH][nH]c1=O | inconclusive: 2.59 µM [rising, partial curve, poor fit] | –
12 | CC1=CCC2C(=O)N(c3cccc(C(=O)NCc4ccccc4)c3)C(=O)C2C1 (stereo not drawn) | – | inactive: -8.25%
13 | COc1ccccc1C1C=C(c2ccccc2)Nc2nnnn21 (stereo not drawn) | active: 8.2 µM | –
14 | CCCCn1c(N)c(N(CCOC)C(=O)CSCc2cccc(C)c2)c(=O)[nH]c1=O | inconclusive: 29.1 µM [rising, single point] | –
15 | Cc1nn(-c2ccccc2)c(C)c1/C=N/NC(=O)CSc1nnc(SCc2ccc(Cl)cc2)s1 | active: 2.31 µM | –
16 | COC(=O)[C@]12CCCCC=C1N(Cc1ccc3c(c1)OCO3)C(=O)[C@H](CC(=O)N1CCOCC1)C2 | – | inactive: -24.6%
17 | Cc1cccc(/C=C2/Sc3ccc(C(=O)NCCN4CCCC4)cc3NC2=O)c1 | – | inactive: 7.86%
18 | Cc1ccc(-c2csc(NC3OC(=O)c4ccccc43)n2)cc1 (stereo not drawn) | inconclusive: 29.1 µM [cytotoxic, partial curve, poor fit] | –
19 | CC(C)C(NC(=O)C12CC3CC(CC(C3)C1)C2)C(=O)O (stereo not drawn) | inconclusive: 8.2 µM [rising, partial curve, poor fit] | –
20 | Cc1cc(C)c2oc(-c3cccc(NC(=O)c4cc5ccccc5o4)c3)nc2c1 | – | inactive: 12.1%
21 | CC(C)(C)c1ccc(C(=O)N2CC(=O)Nc3ccc(F)cc3C2c2ccc(F)cc2)cc1 (stereo not drawn) | inconclusive: 25.9 µM [cytotoxic, single point] | –
22 | CC(C)OC(=O)/C(=C\c1ccc2c(c1)c1ccccc1n2C)NC(=O)c1ccccc1 | inconclusive: 23.1 µM [cytotoxic, partial curve, poor fit] | –
23 | O=C(C1=C[C@H](C2CC2)C[C@H](OCCCCO)O1)N1CCN(Cc2ccccc2)CC1 | – | inactive: 5.91%

Row | SMILES | Potency | activity change, negative = cytotoxicity
24 | CCOc1ccccc1C(=O)NCC(=O)Nc1ccc2c(c1)OCO2 | inconclusive: 18.4 µM [cytotoxic, single point] | –
25 | C[C@H](CO)N1C[C@H](C)[C@@H](CN(C)CC2CCCCC2)Oc2c(NS(=O)(=O)c3ccc(F)cc3)cccc2C1=O | – | inactive: 0%
26 | CCOC(=O)c1c(C)[nH]c(C(C)=NNC(=O)c2cccs2)c1C | – | inactive: -5.72%
27 | Cc1ccc(S(=O)(=O)N(CCC#N)C2CCCCC2)c2nsnc12 | inconclusive: 9.2 µM [cytotoxic, partial curve] | –
28 | COc1cnc(-c2ccccn2)nc1N(C)c1ccccc1 | inconclusive: 20.6 µM [cytotoxic, partial curve, poor fit] | –
29 | O=P(c1ccccc1)(c1ccccc1)c1ccccc1C(Br)Br | inconclusive: 29.1 µM [cytotoxic, single point] | –
30 | CCOC(=O)C1(C)CCCN(C(=O)c2ccc(OC)cc2)C1 (stereo not drawn) | – | inactive: 1.58%
31 | c1csc(CNc2nc(Oc3ccncc3)c3sccc3n2)c1 | inconclusive: 23.1 µM [cytotoxic, partial curve, poor fit] | –
32 | O=C(Nc1ccc(Cl)c([N+](=O)[O-])c1)C(Sc1ccccc1)c1ccccc1 (stereo not drawn) | inconclusive: 14.6 µM [cytotoxic, partial curve, poor fit] | –
33 | CN(C)C(CNC(=O)C1CCN(S(=O)(=O)c2cccc(C(F)(F)F)c2)CC1)c1ccccc1 (stereo not drawn) | inconclusive: 8.2 µM [cytotoxic, partial curve, poor fit] | –
34 | CCCCCCCCCCCCN1[C@@H](CC(=O)O)c2cc(F)ccc2S1(=O)=O | inconclusive: 23.1 µM [rising, partial curve, poor fit] | –
35 | CCn1ncc(Br)c1C(=O)Nc1cc(C)on1 | inconclusive: 2.31 µM [rising, partial curve] | –
36 | O=C(Cn1cnc2c(cnn2-c2ccc(Cl)cc2)c1=O)N1CCN(c2ccccc2)CC1 | active: 5.17 µM | –
37 | COc1ccccc1C(=O)NC1CCN(C(=O)Nc2ccc(C)cc2)CC1 | inconclusive: 18.4 µM [cytotoxic, single point] | –
38 | CCOC(=O)CC1C(=O)NCCN1C(=S)NC(=O)c1ccc(C)c(Br)c1 (stereo not drawn) | – | inactive: 13.2%
39 | COc1ccccc1C(C#N)N1N=C(C)CC1(C)C (stereo not drawn) | inconclusive: 29.1 µM [rising, single point] | –
40 | COc1ccc(CCn2c(C)cc(C(=O)CN3C(=O)C(=O)N(C4CCCC4)C3=O)c2C)cc1OC | – | inactive: -15.4%
41 | O=C(O)COc1ccc(-c2nnn(CC(=O)O)n2)cc1 | inconclusive: 11.2 µM [rising, partial curve, poor fit] | –
42 | CSc1nc(N(C)NC(=O)c2ccccc2)c2ccccc2n1 | active: 1.16 µM | –
43 | CCCNC(=O)CN1CCN(S(=O)(=O)c2ccc(Br)s2)CC1 | inconclusive: 32.6 µM [cytotoxic, partial curve, poor fit] | –
44 | Cc1ccc2nc(SCc3nc(-c4ccccc4C)no3)[nH]c2c1 | inconclusive: 3.66 µM [cytotoxic, full curve] | –
45 | COc1ccccc1N(C)S(=O)(=O)c1ccc(C(=O)NCC(C)C)cc1 | active: 23.1 µM | –
46 | COc1cccc(CN2CCN(Cc3nc(C(C)C)cs3)CC2CCO)c1 (stereo not drawn) | inconclusive: 23.1 µM [cytotoxic, single point] | –

Row | SMILES | Potency | activity change, negative = cytotoxicity
47 | CCN(CC)CCN(C(=O)c1ccccc1OC)c1nc2ccc(F)cc2s1 | inconclusive: 25.9 µM [cytotoxic, single point] | –
48 | COc1cc(C2C3=C(COC3=O)Oc3cc4c(cc32)OCO4)ccc1OC(C)=O (stereo not drawn) | active: 2.06 µM | –
49 | CCc1nnc(NC(=O)CSCc2cc(=O)n3nc(C(C)C)sc3n2)s1 | inconclusive: 29.1 µM [rising, single point] | –
50 | Cc1ccc([C@@H]2CC(=O)[C@@H]3CN(S(=O)(=O)c4ccc(C)cc4)[C@H](c4ccccc4)C[C@@H]3N2S(=O)(=O)c2ccc(Cl)cc2)cc1 | – | inactive: 1.62%
51 | COc1ccc2c(c1)c(C(=O)N/N=C/c1ccc(Cl)cc1)c(C)n2C | inconclusive: 13 µM [cytotoxic, single point] | –
52 | O=C(COC(=O)/C=C/c1ccc(Cl)cc1)NC1CCS(=O)(=O)C1 (stereo not drawn) | – | inactive: 16.4%
53 | COCCCNC(=O)C[C@@H]1C[C@@]2(C(=O)OC)CCCCC=C2N(CCC2=CCCCC2)C1=O | – | inactive: 10.1%
54 | CCCCN(C(=O)CSc1nn(-c2ccc(F)cc2)c(=S)s1)c1c(N)n(CCCC)c(=O)[nH]c1=O | inconclusive: 29.1 µM [rising, single point] | –
55 | CCN1CCc2c(OCC(=O)Nc3cccc(C)c3)cccc2C1=O | inconclusive: 29.1 µM [cytotoxic, partial curve, poor fit] | –
56 | Cc1ncc(CN2CCC(C(=O)Nc3ccc(Oc4cccnc4)cc3)CC2)cn1 | inconclusive: 16.4 µM [cytotoxic, single point] | –
57 | CCOc1ccc(C(=O)Nc2ccncc2)cc1 | inconclusive: 20.6 µM [cytotoxic, single point] | –
58 | Cc1cc2ncn(S(=O)(=O)N(C)C)c2cc1C | inconclusive: 20.6 µM [cytotoxic, single point] | –
59 | CCc1nc2cc(Cl)c(Cl)cc2[nH]1 | inconclusive: 29.1 µM [cytotoxic, single point] | –
60 | CS(=O)(=O)N1CCc2cc(S(=O)(=O)Nc3ccc4oc5c(c4c3)CCCC5)ccc21 | inconclusive: 18.4 µM [cytotoxic, single point] | –
61 | Cc1ccc(NC(=O)Cn2c(=O)c(C(F)(F)F)nc3ccccc32)c(C)c1 | – | inactive: 0%
62 | O=C(N/N=C/c1coc2ccc(Cl)cc2c1=O)c1ccc(O)cc1 | inconclusive: 16.4 µM [rising, single point] | –
63 | CCN(Cc1ccccc1)C(=O)c1ccccc1C | inconclusive: 29.1 µM [cytotoxic, single point] | –
64 | Cc1ccc2[nH]c3c(N4CCc5ccccc5C4)ncnc3c2c1 | inconclusive: 11.6 µM [cytotoxic, partial curve, poor fit] | –
65 | CC(C)Nc1ncnc2[nH]ncc12 | inconclusive: 29.1 µM [rising, single point] | –
66 | Cc1ccc(NC(=O)c2ccc(OCC3CCCO3)cc2)nc1 (stereo not drawn) | inconclusive: 10.3 µM [cytotoxic, partial curve] | –
67 | CN(C)S(=O)(=O)c1ccc(N2CCCC2)c(C(=O)Nc2nccs2)c1 | inconclusive: 16.4 µM [cytotoxic, single point] | –
68 | C(=N\NC1=Nc2cccc3cccc1c23)/c1cccnc1 | active: 16.4 µM | –

Some values from the results shown:
Cc1ccc2nc(SCc3nc(-c4ccccc4C)no3)[nH]c2c1 | Potency: inconclusive: 3.66 µM [cytotoxic, full curve]
CC1=CCC2C(=O)N(c3cccc(C(=O)NCc4ccccc4)c3)C(=O)C2C1 (stereo not drawn) | activity change, negative = cytotoxicity: inactive: -8.25%
CCOC(=O)CC1C(=O)NCCN1C(=S)NC(=O)c1ccc(C)c(Br)c1 (stereo not drawn) | activity change, negative = cytotoxicity: inactive: 13.2%
O=C(c1ccccc1F)N1CCCC(c2ccccc2)C1 (stereo not drawn) | Potency: active: 23.1 µM
